Measurements reported in publication PMC10197942.
Results are given in words; binding and its absence hold for the method and conditions named. Binding seen in cells or lysates may run through a third protein. Some entries that bind do so weakly or less than the wild type.

Chains of the proteins cited; added tags and fusions are not shown.
UniProt P22626: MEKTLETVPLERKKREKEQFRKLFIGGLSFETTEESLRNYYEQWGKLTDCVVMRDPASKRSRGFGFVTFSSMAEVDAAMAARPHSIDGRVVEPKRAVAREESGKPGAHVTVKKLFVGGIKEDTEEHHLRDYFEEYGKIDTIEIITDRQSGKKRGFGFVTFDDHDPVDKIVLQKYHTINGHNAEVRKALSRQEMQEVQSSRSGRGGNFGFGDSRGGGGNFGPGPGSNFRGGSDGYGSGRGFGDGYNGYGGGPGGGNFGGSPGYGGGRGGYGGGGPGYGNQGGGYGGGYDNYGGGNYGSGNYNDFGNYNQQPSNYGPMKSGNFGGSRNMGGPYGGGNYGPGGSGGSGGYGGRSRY

Biological target: Heterogeneous nuclear ribonucleoprotein A2/B1 (human (endogenous in DU145 and PC3)) (UniProt P22626)
Assay: co-IP; lysates of DU145 and PC3 cells; incubated with anti-HNRNPA2B1 or anti-DGCR8 (IgG as negative control) at 4°C overnight, then magnetic beads at room temperature; eluted proteins analysed by western blotting with anti-HNRNPA2B1 and anti-DGCR8

B1: DiGeorge syndrome critical region gene 8 (protein, UniProt Q8WYQ5 1-773)
chain: METDESPSPLPCGPAGEAVMESRARPFQALPREQSPPPPLQTSSGAEVMDVGSGGDGQSELPAEDPFNFYGASLLSKGSFSKGRLLIDPNCSGHSPRTARHAPAVRKFSPDLKLLKDVKISVSFTESCRSKDRKVLYTGAERDVRAECGLLLSPVSGDVHACPFGGSVGDGVGIGGESADKKDEENELDQEKRVEYAVLDELEDFTDNLELDEEGAGGFTAKAIVQRDRVDEEALNFPYEDDFDNDVDALLEEGLCAPKKRRTEEKYGGDSDHPSDGETSVQPMMTKIKTVLKSRGRPPTEPLPDGWIMTFHNSGVPVYLHRESRVVTWSRPYFLGTGSIRKHDPPLSSIPCLHYKKMKDNEEREQSSDLTPSGDVSPVKPLSRSAELEFPLDEPDSMGADPGPPDEKDPLGAEAAPGALGQVKAKVEVCKDESVDLEEFRSYLEKRFDFEQVTVKKFRTWAERRQFNREMKRKQAESERPILPANQKLITLSVQDAPTKKEFVINPNGKSEVCILHEYMQRVLKVRPVYNFFECENPSEPFGASVTIDGVTYGSGTASSKKLAKNKAARATLEILIPDFVKQTSEEKPKDSEELEYFNHISIEDSRVYELTSKAGLLSPYQILHECLKRNHGMGDTSIKFEVVPGKNQKSEYVMACGKHTVRGWCKNKRVGKQLASQKILQLLHPHVKNWGSLLRMYGRESSKMVKQETSDKSVIELQQYAKKNKPNLHILSKLQEEMKRLAEEREETRKKPKMSIVASAQPGGEPLCTVDV
binding: binds
